Consider one molecule from PMC9076386 (RSC Advances, 2019).

The assay relates to MCF-7 cells. The experiment in a line: MTT cytotoxicity assay, MCF-7. Format: cell-based. Conditions: Homo sapiens, MCF7, read-out: IC50 MCF-7.

pIC50: −log10 of the molar value.

Broadly, the pIC50 is −log10 of the IC50, conventionally taken in molar units. As to `CC(=O)O[C@H]1C(=O)[C@@]2(C)[C@H]([C@H](OC(=O)c3ccccc3)[C@]3(O)C[C@H](OC(=O)[C@H](O)[C@@H](NC(=O)c4ccccc4)c4ccccc4)C(C)=C1C3(C)C)[C@]1(OC(C)=O)CO[C@@H]1C[C@@H]2O` [Paclitaxel], the pIC50 is 8.77.
